The list shows a part of the results. Most entries show no effect beyond the scatter of the controls.

Chains of the proteins cited; added tags and fusions are not shown. Lines headed by an entry give the natural chain unless they say otherwise; changes in a name come on top.
UniProt Q3UJZ3: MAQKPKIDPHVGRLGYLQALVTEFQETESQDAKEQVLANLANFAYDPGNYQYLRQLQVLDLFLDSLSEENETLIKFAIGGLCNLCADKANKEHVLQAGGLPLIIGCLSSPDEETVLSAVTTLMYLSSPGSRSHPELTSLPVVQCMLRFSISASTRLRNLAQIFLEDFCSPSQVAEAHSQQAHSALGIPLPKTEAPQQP
UniProt Q3UAW9: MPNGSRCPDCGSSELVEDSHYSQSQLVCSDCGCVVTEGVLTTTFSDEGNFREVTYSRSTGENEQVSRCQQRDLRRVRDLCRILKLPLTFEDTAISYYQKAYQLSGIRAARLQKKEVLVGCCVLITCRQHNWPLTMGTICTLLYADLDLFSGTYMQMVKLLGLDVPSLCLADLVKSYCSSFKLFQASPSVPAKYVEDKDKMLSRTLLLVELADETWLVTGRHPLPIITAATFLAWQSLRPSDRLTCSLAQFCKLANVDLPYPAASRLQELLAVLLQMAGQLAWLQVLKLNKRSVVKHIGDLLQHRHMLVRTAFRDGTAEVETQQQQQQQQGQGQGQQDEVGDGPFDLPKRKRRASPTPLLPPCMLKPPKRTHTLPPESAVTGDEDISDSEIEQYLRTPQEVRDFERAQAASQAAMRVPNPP
UniProt Q3UUJ4: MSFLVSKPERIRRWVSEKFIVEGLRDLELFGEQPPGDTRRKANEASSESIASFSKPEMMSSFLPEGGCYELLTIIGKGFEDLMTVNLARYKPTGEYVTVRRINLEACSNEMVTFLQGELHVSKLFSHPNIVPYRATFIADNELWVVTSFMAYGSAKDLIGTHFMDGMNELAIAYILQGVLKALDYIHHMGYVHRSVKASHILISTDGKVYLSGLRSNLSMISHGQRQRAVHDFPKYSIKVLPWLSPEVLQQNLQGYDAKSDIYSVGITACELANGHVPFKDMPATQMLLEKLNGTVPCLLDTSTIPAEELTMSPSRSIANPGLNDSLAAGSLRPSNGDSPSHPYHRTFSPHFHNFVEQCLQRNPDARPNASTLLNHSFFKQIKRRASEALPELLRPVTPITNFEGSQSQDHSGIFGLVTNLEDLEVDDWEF
UniProt Q571I9: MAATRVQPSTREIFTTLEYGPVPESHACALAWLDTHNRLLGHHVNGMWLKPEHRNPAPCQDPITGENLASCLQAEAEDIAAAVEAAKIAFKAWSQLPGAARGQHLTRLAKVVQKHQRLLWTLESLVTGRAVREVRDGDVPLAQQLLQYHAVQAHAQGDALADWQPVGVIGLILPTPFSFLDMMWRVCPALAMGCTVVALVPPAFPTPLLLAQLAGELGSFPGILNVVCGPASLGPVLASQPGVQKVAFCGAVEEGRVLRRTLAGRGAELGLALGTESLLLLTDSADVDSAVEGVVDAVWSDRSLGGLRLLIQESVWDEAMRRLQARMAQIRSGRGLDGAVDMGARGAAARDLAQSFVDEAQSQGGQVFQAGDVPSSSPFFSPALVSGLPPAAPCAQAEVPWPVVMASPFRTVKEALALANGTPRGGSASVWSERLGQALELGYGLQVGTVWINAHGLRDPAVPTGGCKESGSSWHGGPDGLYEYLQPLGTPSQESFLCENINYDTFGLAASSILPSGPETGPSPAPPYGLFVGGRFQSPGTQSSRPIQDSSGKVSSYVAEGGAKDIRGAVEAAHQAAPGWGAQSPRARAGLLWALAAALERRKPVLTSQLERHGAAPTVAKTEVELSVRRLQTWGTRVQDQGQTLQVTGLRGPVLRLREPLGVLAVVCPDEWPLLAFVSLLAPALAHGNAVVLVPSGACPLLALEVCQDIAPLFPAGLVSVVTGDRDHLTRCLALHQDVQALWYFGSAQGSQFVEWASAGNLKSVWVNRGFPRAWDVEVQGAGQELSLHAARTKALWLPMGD
UniProt Q5DTX6: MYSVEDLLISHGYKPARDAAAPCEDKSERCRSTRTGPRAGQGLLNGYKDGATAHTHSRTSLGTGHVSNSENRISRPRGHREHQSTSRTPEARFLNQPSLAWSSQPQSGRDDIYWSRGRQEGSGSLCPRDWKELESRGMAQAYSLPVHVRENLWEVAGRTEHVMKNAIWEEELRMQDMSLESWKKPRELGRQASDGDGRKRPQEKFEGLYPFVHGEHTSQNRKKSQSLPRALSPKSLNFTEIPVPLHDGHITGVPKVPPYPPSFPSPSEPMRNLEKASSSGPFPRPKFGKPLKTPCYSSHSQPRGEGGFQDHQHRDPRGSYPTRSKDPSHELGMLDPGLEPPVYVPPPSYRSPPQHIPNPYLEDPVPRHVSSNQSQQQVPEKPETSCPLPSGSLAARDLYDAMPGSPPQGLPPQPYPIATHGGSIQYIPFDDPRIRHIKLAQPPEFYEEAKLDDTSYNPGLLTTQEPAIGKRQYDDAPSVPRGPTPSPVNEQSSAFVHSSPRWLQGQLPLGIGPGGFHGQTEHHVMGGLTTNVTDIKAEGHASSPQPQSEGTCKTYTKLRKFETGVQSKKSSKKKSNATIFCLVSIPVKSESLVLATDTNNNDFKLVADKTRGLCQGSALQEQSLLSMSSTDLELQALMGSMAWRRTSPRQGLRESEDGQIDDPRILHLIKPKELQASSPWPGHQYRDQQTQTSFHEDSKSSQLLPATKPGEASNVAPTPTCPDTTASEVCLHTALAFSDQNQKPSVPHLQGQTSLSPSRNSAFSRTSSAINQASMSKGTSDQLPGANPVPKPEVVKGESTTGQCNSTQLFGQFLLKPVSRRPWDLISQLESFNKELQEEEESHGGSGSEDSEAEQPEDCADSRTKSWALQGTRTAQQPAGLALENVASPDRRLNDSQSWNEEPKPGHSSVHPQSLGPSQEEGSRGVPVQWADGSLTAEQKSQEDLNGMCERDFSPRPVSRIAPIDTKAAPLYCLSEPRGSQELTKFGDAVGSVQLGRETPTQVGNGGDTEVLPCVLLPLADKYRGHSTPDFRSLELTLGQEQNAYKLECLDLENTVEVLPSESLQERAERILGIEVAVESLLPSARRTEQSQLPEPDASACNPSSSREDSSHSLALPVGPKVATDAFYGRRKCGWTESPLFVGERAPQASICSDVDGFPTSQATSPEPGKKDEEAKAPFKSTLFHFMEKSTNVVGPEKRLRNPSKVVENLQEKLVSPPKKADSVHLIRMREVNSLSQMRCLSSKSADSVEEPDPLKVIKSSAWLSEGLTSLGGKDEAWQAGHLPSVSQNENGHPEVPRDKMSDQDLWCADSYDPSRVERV
UniProt Q3UFM5: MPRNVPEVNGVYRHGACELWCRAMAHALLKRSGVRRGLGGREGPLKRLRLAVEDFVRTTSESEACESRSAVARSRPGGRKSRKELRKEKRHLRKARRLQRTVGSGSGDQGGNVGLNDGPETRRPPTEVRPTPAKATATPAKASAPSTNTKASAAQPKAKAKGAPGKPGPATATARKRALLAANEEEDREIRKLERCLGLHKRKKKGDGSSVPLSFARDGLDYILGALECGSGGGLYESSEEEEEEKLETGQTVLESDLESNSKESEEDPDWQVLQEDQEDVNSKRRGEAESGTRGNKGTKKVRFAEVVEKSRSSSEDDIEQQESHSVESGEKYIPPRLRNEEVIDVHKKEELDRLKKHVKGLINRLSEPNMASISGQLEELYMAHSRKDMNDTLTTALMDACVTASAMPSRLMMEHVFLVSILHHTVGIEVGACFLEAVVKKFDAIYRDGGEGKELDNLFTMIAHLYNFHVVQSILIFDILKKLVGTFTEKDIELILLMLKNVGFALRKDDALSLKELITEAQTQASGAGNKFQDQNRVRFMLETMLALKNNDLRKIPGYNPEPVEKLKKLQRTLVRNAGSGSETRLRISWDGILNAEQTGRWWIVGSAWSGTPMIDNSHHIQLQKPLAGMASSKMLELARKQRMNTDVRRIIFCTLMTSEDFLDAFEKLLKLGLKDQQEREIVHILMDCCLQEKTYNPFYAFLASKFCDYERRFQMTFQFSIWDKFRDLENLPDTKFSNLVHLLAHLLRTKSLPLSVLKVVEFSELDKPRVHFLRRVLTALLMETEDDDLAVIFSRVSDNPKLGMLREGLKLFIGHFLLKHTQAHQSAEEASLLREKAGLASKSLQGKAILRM
UniProt Q3UTZ3: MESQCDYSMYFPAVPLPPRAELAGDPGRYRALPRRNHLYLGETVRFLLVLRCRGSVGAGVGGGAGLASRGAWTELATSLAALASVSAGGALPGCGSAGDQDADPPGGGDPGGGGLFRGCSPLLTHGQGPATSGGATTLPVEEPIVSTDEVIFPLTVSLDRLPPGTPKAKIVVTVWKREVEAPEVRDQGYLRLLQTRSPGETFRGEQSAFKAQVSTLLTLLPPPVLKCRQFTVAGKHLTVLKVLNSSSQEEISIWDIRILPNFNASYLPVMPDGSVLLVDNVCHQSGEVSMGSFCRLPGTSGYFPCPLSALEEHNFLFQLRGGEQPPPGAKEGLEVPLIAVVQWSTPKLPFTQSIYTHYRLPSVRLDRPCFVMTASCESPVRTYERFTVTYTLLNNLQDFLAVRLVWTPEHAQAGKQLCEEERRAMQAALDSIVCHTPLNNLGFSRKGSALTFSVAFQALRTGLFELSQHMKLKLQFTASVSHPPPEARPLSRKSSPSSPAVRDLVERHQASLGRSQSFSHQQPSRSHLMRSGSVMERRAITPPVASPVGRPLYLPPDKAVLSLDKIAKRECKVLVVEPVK
UniProt Q499E6: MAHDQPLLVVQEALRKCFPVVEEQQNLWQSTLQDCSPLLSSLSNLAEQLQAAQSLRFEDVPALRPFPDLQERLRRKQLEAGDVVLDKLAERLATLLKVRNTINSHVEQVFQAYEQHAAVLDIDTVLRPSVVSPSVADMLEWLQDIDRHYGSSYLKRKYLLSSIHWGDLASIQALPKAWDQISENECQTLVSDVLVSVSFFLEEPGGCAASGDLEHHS
UniProt Q4ACU6: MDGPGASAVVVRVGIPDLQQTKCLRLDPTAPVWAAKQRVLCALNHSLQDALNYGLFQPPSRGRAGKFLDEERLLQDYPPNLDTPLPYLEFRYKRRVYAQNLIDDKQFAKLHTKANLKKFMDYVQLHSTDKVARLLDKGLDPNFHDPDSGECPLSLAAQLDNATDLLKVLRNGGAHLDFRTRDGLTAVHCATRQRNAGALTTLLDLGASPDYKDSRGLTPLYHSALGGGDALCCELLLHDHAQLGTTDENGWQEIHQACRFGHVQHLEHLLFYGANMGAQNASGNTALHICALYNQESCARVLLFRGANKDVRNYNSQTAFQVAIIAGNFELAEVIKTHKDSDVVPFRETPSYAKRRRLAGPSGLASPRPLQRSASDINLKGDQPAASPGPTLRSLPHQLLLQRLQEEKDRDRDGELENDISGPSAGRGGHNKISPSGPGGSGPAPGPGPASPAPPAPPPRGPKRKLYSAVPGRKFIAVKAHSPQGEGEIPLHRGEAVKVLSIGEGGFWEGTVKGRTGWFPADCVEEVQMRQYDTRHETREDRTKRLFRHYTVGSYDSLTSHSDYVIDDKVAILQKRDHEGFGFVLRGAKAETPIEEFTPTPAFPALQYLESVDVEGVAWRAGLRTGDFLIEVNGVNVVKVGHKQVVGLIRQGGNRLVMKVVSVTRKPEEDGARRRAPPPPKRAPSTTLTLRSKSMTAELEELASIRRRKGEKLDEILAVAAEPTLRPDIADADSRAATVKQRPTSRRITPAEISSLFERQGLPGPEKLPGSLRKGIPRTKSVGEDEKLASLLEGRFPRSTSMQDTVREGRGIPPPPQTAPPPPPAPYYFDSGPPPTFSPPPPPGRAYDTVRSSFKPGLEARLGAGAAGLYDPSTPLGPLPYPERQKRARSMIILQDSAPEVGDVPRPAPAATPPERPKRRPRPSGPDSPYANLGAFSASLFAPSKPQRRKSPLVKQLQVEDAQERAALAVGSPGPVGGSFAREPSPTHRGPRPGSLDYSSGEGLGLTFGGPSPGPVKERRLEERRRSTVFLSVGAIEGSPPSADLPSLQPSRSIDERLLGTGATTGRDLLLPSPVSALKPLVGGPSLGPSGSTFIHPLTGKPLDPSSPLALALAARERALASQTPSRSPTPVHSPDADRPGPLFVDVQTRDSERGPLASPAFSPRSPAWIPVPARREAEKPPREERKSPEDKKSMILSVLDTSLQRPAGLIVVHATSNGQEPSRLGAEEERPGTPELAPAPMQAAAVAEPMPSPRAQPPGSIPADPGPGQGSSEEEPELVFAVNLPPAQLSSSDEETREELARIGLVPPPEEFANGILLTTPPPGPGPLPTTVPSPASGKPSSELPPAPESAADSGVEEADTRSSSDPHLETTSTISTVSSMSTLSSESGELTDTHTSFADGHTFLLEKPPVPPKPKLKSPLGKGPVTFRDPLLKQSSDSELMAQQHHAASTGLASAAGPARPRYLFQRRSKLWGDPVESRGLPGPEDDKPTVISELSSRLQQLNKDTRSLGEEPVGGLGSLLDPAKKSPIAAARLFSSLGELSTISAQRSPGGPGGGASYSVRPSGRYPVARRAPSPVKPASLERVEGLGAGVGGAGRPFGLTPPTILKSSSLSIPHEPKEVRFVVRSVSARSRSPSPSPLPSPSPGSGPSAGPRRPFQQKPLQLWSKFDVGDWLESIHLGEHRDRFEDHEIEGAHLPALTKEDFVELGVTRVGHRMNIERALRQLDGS

Compound in this experiment: CN[C@@H]1C[C@H]2O[C@@](C)([C@@H]1OC)n1c3ccccc3c3c4c(c5c6ccccc6n2c5c31)C(=O)NC4 [staurosporine]
Kind of experiment: log2 fold change of tryptic peptide abundance, ligand vs vehicle (limited proteolysis) (log2 ratio); higher = more trypsin-susceptible (destabilized). The following applies: ligand concentration: 20 uM; sample: mouse liver crude lysate; replicate design: treated separately.
On to “UniProt Q3UPL0 (peptide sequence: NVWSFLK, peptide start residue: 471)”, for which the log2 fold change is -0.18.

As for “UniProt Q3UJZ3 (peptide sequence: FSISASTR, peptide start residue: 148)”, the log2 fold change worked out at 0.401.

Regarding “UniProt Q3UAW9 (peptide sequence: AQAASQAAMR, peptide start residue: 406)”, the log2 fold change worked out at 0.0423.

In the case of “UniProt Q3UI43 (peptide sequence: LESFNGSR, peptide start residue: 114)”, the log2 fold change is -0.151.

With “UniProt Q3UZA1 (peptide sequence: ETPASKPTR, peptide start residue: 36)”, the log2 fold change was -0.201.

As for “UniProt Q3UQN2 (peptide sequence: SKPSSLPTEK, peptide start residue: 410)”, the log2 fold change is -0.295.

With “UniProt Q5D1E7 (peptide sequence: KLGYSSSEIHSVLQK, peptide start residue: 57)”, the log2 fold change amounted to 0.408.

As for “UniProt Q56A06 (peptide sequence: NSEMKPSFASK, peptide start residue: 362)”, the log2 fold change was -0.0762.

For “UniProt Q4U2R1 (peptide sequence: MLVESGTTDKPAPPDR, peptide start residue: 2000)”, the log2 fold change was -0.495.

On to “UniProt Q3UUJ4 (peptide sequence: ASHILISTDGK, peptide start residue: 198)”, for which the log2 fold change was -0.0893.

Turning to “UniProt Q3V0C1 (peptide sequence: ISHFESEIHAQNVK, peptide start residue: 105)”, the log2 fold change was 0.416.

On to “UniProt Q3UFT3 (peptide sequence: LSVCVYGNNLHGNSEVNLHGCR, peptide start residue: 386)”, for which the log2 fold change came out at 0.47.

With “UniProt Q571I9 (peptide sequence: RKPVLTSQLER, peptide start residue: 602)”, the log2 fold change was -0.611.

For “UniProt Q569Z5 (peptide sequence: LQNSYQPTNK, peptide start residue: 1017)”, the log2 fold change worked out at 0.136.

Consider “UniProt Q3UPP8 (peptide sequence: MEISQLTR, peptide start residue: 412)”, for which the log2 fold change came out at 0.327.

Consider “UniProt Q3ULJ0 (peptide sequence: VMQNGLLFK, peptide start residue: 172)”, for which the log2 fold change was -0.179.

With “UniProt Q3UMB5 (peptide sequence: SIIEHQDLLR, peptide start residue: 242)”, the log2 fold change came out at 0.224.

For the target “UniProt Q571C7 (peptide sequence: TGDKNNAAESSTLSSASSQR, peptide start residue: 75)”, the log2 fold change amounted to 0.547.

On to “UniProt Q5DTX6 (peptide sequence: ESEDGQIDDPR, peptide start residue: 654)”, for which the log2 fold change was 0.346.

Consider “UniProt Q3UFM5 (peptide sequence: ASAAQPK, peptide start residue: 151)”, for which the log2 fold change was determined as 0.421.

In the case of “UniProt Q5BL07 (peptide sequence: AIHSSLSR, peptide start residue: 792)”, the log2 fold change is -0.246.

In the case of “UniProt Q3UTZ3 (peptide sequence: AITPPVASPVGR, peptide start residue: 539)”, the log2 fold change was 0.187.

As to “UniProt Q3UDP0 (peptide sequence: TAHDSNILHIDKLPNR, peptide start residue: 320)”, the log2 fold change was -0.179.

As for “UniProt Q504N7 (peptide sequence: VKIADLMEDKFPK, peptide start residue: 45)”, the log2 fold change was -0.546.

With “UniProt Q3URE1 (peptide sequence: VTPGFEEK, peptide start residue: 412)”, the log2 fold change was -0.499.

Take “UniProt Q3UGR5 (peptide sequence: TFFLEALR, peptide start residue: 183)”: the log2 fold change was -0.401.

On to “UniProt Q3UJD6 (peptide sequence: ASHSEHHPDLGPAAEAAASQASR, peptide start residue: 1266)”, for which the log2 fold change is -0.348.

With “UniProt Q499E6 (peptide sequence: FEDVPALRPFPDLQER, peptide start residue: 57)”, the log2 fold change was -0.125.

As for “UniProt Q3UMQ8 (peptide sequence: FGGSGQGSAAPQPPEDRR, peptide start residue: 15)”, the log2 fold change turned out to be 0.277.

For “UniProt Q3US41 (peptide sequence: STAAEVQQVLNR, peptide start residue: 426)”, the log2 fold change was found to be 0.0634.

Take “UniProt Q3UMR5 (peptide sequence: LVINDLTYHVRPPKR, peptide start residue: 150)”: the log2 fold change is 0.129.

With “UniProt Q3V2Q8 (peptide sequence: FNVQELAR, peptide start residue: 149)”, the log2 fold change came to 0.124.

Regarding “UniProt Q3UNX5 (peptide sequence: GSFYITGDR, peptide start residue: 448)”, the log2 fold change came to 0.184.

As for “UniProt Q4ACU6 (peptide sequence: SPTPVHSPDADRPGPLFVDVQTR, peptide start residue: 1128)”, the log2 fold change is 0.329.

For “UniProt Q3V209 (peptide sequence: GEMEPSLEHLLDIQGLPK, peptide start residue: 127)”, the log2 fold change stood at 0.217.

For “UniProt Q3UY96 (peptide sequence: KPVGGSKMEK, peptide start residue: 473)”, the log2 fold change came out at 0.098.

For the origin of these results see the supplement of paper PMC12819154, “High-throughput peptide-centric local stability assay extends protein–ligand identification to membrane proteins, tissues and bacteria” (Nature Structural & Molecular Biology, 2025).
